Experimental findings from PubChem BioAssay AID256 (DTP/NCI, 2004) are described below.

The list does not hold the whole screen: it gathers tests that were run many times, whatever their T/C, doses with no T/C, and many T/C values between a quarter and a half above the control. Further doses and runs are listed elsewhere. T/C gives the treated animals as a percentage of the vehicle group. Some doses have a count of surviving animals in place of a T/C: the source files T/C as zero there, which appears to mark a toxic dose or a test without result, not a measured value. Some doses without a T/C left all or most animals alive at the check, yet need not have been tolerated: the source hardly ever lists a survival T/C far under the control, and the zero likely stands for such cases as well. Counts of survivors are from the toxicity check (mostly the fifth day) where no day follows; animals may have died later. Schedule codes are those of the source, read here as Q, the interval in days (D) or hours (H), X, the number of doses. Some doses were run more than once; their values stand side by side, smallest first. Where survival is the endpoint, the PubChem record calls one and a half times the control and up active, and a quarter to a half above the control has no call in these data; cut-offs in other NCI protocols can differ. Some T/C values carry the count of animals alive at the toxicity check (mostly the fifth day); where none is given, no animal had died by that day.

This test concerns CD2F1 mice, L1210 leukemia ip, survival T/C. Briefly: NCI In Vivo Anticancer Drug Screen. Data for tumor model L1210 Leukemia (intraperitoneal) in CD2F1 (CDF1) mice. The following applies: higher T/C = longer survival. In outline: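 Compound-dosed mice with transplantable tumor versus matched vehicle controls; endpoint ratio T/C reported.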
[1] abbreviates: T/C endpoint: mean survival time, dose: 100.0 mg/kg/injection, schedule: Q01DX009 (ip), vehicle: saline.
[2] abbreviates: T/C endpoint: mean survival time, dose: 200.0 mg/kg/injection, schedule: Q01DX009 (ip), vehicle: saline.
[3] abbreviates: T/C endpoint: mean survival time, dose: 400.0 mg/kg/injection, schedule: Q01DX001 (ip), vehicle: saline with Tween-80.
[4] abbreviates: T/C endpoint: mean survival time, dose: 400.0 mg/kg/injection, schedule: Q04DX003 (ip), vehicle: saline with Tween-80.
Where [5] appears, read: T/C endpoint: mean survival time, dose: 200.0 mg/kg/injection, schedule: Q04DX003 (ip), vehicle: saline with Tween-80.
Where [6] appears, read: T/C endpoint: mean survival time, dose: 100.0 mg/kg/injection, schedule: Q04DX003 (ip), vehicle: saline.
The mark [7] stands for this setting: T/C endpoint: mean survival time, dose: 200.0 mg/kg/injection, schedule: Q04DX003 (ip), vehicle: saline.
The mark [8] stands for this setting: T/C endpoint: mean survival time, dose: 25.0 mg/kg/injection, schedule: Q01DX009 (ip), vehicle: saline.
Setting [9] is: T/C endpoint: mean survival time, dose: 400.0 mg/kg/injection, schedule: Q01DX009 (ip), vehicle: saline with Tween-80.
Where [10] appears, read: T/C endpoint: mean survival time, dose: 200.0 mg/kg/injection, schedule: Q01DX009 (ip), vehicle: saline with Tween-80.
Where [11] appears, read: T/C endpoint: mean survival time, dose: 400.0 mg/kg/injection, schedule: Q04DX002 (ip), vehicle: saline with Tween-80.

For the compound `Cc1c2c(O)c(O)c(O)cc2c[n+]2ccccc12`, the survivor count is on record as 0 of 3 under setting [1] and 0 of 3 under setting [2]. Consider `c1ccc(N=Nn2c3ccccc3c3ccccc32)cc1`, for which the T/C under setting [3] was 126 % of control.

Regarding `O=C(O)c1c(F)c(F)c(-c2c(F)c(F)c(C(=O)O)c(C(=O)O)c2F)c(F)c1C(=O)O`, under setting [3], the survivor count is on record as 0 of 6. `Nc1ncnc(N)c1N=O`: under setting [4], the survivor count was 6 of 6. For the compound `CCn1cnc(-c2ccccc2)c1-c1ccccc1`, the survivor count is, setting by setting: under setting [5], 6 of 6; under setting [4], 6 of 6.

For the compound `CC(=O)CC(=O)c1ccccc1.CC(=O)CC(=O)c1ccccc1.CC(=O)CC(=O)c1ccccc1.[Co]`, the survivor count by setting is: under setting [6], 3 of 6; under setting [7], 1 of 6; (T/C endpoint: mean survival time, dose: 300.0 mg/kg/injection, schedule: Q04DX003 (ip), vehicle: saline) 0 of 6. On to `[CH3][Pb]([CH3])([CH3])[O]C(=O)CCl`, for which the survivor count is 5 of 6 (T/C endpoint: mean survival time, dose: 6.25 mg/kg/injection, schedule: Q01DX009 (ip), vehicle: saline); 3 of 6 (T/C endpoint: mean survival time, dose: 12.5 mg/kg/injection, schedule: Q01DX009 (ip), vehicle: saline); 0 of 6 under setting [8]. As for `N=C(N)SC1c2ccccc2-c2ccc(N)cc21` (configuration not stated), the survivor count is, setting by setting: under setting [5], 3 of 6; under setting [4], 0 of 6. In the case of `CC1CC(C)(C)NC1=O` (configuration not stated), the survivor count under setting [6] is 0 of 6; the survivor count under setting [7] is 0 of 6; the survivor count (T/C endpoint: mean survival time, dose: 400.0 mg/kg/injection, schedule: Q04DX003 (ip), vehicle: saline) is reported as 0 of 6. For the compound `COc1ccccc1C1=CCCCCC1`, the survivor count under setting [9] is 6 of 6. `CN(C)c1nc(N)cc(-c2ccncc2)n1`: the survivor count (T/C endpoint: mean survival time, dose: 400.0 mg/kg/injection, schedule: Q04DX002 (ip), vehicle: saline) is 0 of 3. In the case of `CCCNCCNc1ccc(NCCNCCC)c2c1C(=O)c1ccccc1C2=O`, the survivor count (T/C endpoint: mean survival time, dose: 64.0 mg/kg/injection, schedule: Q01DX009 (ip), vehicle: acid diluted with saline) is given as 1 of 6. In the case of `Nc1ncnc2c1ccn2C1OC(CO)C2[O][Sn]([c]3ccccc3)([c]3ccccc3)[O]C21` (configuration not stated), the survivor count by setting is: (T/C endpoint: mean survival time, dose: 12.5 mg/kg/injection, schedule: Q01DX005 (ip), vehicle: other) 0 of 6; (T/C endpoint: mean survival time, dose: 25.0 mg/kg/injection, schedule: Q01DX005 (ip), vehicle: other) 0 of 6; (T/C endpoint: mean survival time, dose: 50.0 mg/kg/injection, schedule: Q01DX005 (ip), vehicle: other) 0 of 6; (T/C endpoint: mean survival time, dose: 100.0 mg/kg/injection, schedule: Q01DX005 (ip), vehicle: other) 0 of 6; (T/C endpoint: mean survival time, dose: 200.0 mg/kg/injection, schedule: Q01DX005 (ip), vehicle: other) 0 of 6. Consider `CCOP(=O)(NCc1ccco1)OCC`, for which the survivor count reads like this: (T/C endpoint: mean survival time, dose: 200.0 mg/kg/injection, schedule: Q01DX001 (ip), vehicle: carboxymethylcellulose (CMC)) 2 of 4; (T/C endpoint: mean survival time, dose: 400.0 mg/kg/injection, schedule: Q01DX001 (ip), vehicle: carboxymethylcellulose (CMC)) 0 of 4. Consider `CN=Cc1ccc(OC)cc1`, for which the survivor count was 2 of 6 under setting [5] and 0 of 6 under setting [4].

Consider `O=C1C(=O)c2ccccc2-c2ccccc21`, for which, under setting [10], the survivor count is listed as 6 of 6.

On to `CCOC(=O)CCC(NC(=O)c1ccc(NCc2ccc3nc(N)nc(N)c3c2C)cc1)C(=O)OCC` (configuration not stated), for which the T/C reads like this: (T/C endpoint: mean survival time, dose: 0.5 mg/kg/injection, schedule: Q01DX001 (ip), vehicle: saline + alcohol) 134 [5 of 6 alive] and 136 % of control [5 of 6 alive]; (T/C endpoint: mean survival time, dose: 1.0 mg/kg/injection, schedule: Q01DX001 (ip), vehicle: saline + alcohol) 146 % of control [5 of 6 alive]. As for `CCOC(=O)c1cnc(SCc2ccccc2Cl)nc1N1CC1`, the T/C (T/C endpoint: mean survival time, dose: 42.5 mg/kg/injection, schedule: Q01DX009 (ip), vehicle: saline with Tween-80) is 126 % of control. The survivor count (T/C endpoint: mean survival time, dose: 63.75 mg/kg/injection, schedule: Q01DX009 (ip), vehicle: saline with Tween-80) is 3 of 6. Regarding `CCOC1CCN(CCCn2c3ccccc3c3ccccc32)CC1`, the survivor count is given as 0 of 3 (T/C endpoint: mean survival time, dose: 200.0 mg/kg/injection, schedule: Q04DX002 (ip), vehicle: saline with Tween-80) and 0 of 3 under setting [11]. Regarding `Clc1ccc2ccccc2c1C(Cl)Cl`, the survivor count (T/C endpoint: mean survival time, dose: 100.0 mg/kg/injection, schedule: Q01DX009 (ip), vehicle: saline with Tween-80) is recorded as 6 of 6. As to `CC(C)(C)CC(C)(C)c1ccc(O)cc1O`, the survivor count by setting is: (T/C endpoint: mean survival time, dose: 200.0 mg/kg/injection, schedule: Q01DX001 (ip), vehicle: saline with Tween-80) 2 of 6; under setting [3], 0 of 6. Regarding `O=C1SC(c2ccccc2)=S=C1c1ccccc1`, the survivor count (T/C endpoint: median survival time, dose: 800.0 mg/kg/injection, schedule: Q01DX009 (ip), vehicle: saline with Tween-80) is reported as 4 of 6. As for `OC1CC2CC1C1C=CCC21` (configuration not stated), the survivor count under setting [4] is on record as 2 of 6. In the case of `COc1ccc(/C=N/NC(=O)CNC(=O)c2ccccc2)cc1`, the survivor count under setting [10] is recorded as 6 of 6. With `N#Cc1c(F)c(F)cc(F)c1F`, the survivor count under setting [9] is recorded as 5 of 6. Take `O=C1CCCC(=O)N1CCCCCCN1C(=O)CCCC1=O`: under setting [9], the survivor count is given as 2 of 6. On to `CCOC(=O)C(N)CSC(c1ccccc1)(c1ccccc1)c1ccccc1` (configuration not stated), for which the T/C under setting [8] is 130 % of control [5 of 6 alive]; the T/C (T/C endpoint: mean survival time, dose: 50.0 mg/kg/injection, schedule: Q01DX009 (ip), vehicle: saline) was 136 % of control; the T/C under setting [1] was 127 % of control. Further, the survivor count under setting [2] is listed as 4 of 6 and the survivor count (T/C endpoint: mean survival time, dose: 400.0 mg/kg/injection, schedule: Q01DX009 (ip), vehicle: saline) is 1 of 6. As for `COc1cc(C(=O)NC(=S)Nc2ccc3ccccc3c2)cc(OC)c1OC`, under setting [9], the survivor count was 3 of 3. As to `COc1cc(/C=C/c2ccccn2)cc(OC)c1OC`, the survivor count under setting [4] is 5 of 6. Consider `CCC(C)Nc1ccc(N)cc1` (configuration not stated), for which the survivor count is 0 of 6 (T/C endpoint: mean survival time, dose: 12.5 mg/kg/injection, schedule: Q01DX009 (ip), vehicle: carboxymethylcellulose (CMC)); 0 of 6 (T/C endpoint: mean survival time, dose: 25.0 mg/kg/injection, schedule: Q01DX009 (ip), vehicle: carboxymethylcellulose (CMC)); 0 of 6 (T/C endpoint: mean survival time, dose: 50.0 mg/kg/injection, schedule: Q01DX009 (ip), vehicle: carboxymethylcellulose (CMC)).

As to `CN(C)S(=O)(=O)c1ccc(Cl)c([N+](=O)[O-])c1`, under “T/C endpoint: mean survival time, dose: 400.0 mg/kg/injection, schedule: Q04DX002 (ip), vehicle: Klucel (hydroxypropylcellulose) (HPC)”, the survivor count was 0 of 3. `CC(=O)Oc1c(Cl)cc(Cl)c(Cl)c1[N+](=O)[O-]`: the survivor count under setting [3] is recorded as 0 of 6. `COc1c(C=O)c2c(c(OC)c1OC)-c1ccc(OC)c(=O)cc1[C@@H](NC(C)=O)CC2`: the T/C by setting is: (T/C endpoint: median survival time, dose: 1.56 mg/kg/injection, schedule: Q01DX009 (ip), vehicle: Klucel (hydroxypropylcellulose) (HPC)) 125 and 136 % of control; (T/C endpoint: median survival time, dose: 3.12 mg/kg/injection, schedule: Q01DX009 (ip), vehicle: Klucel (hydroxypropylcellulose) (HPC)) 133 and 136 % of control; (T/C endpoint: median survival time, dose: 6.25 mg/kg/injection, schedule: Q01DX009 (ip), vehicle: Klucel (hydroxypropylcellulose) (HPC)) 133 and 139 % of control; (T/C endpoint: median survival time, dose: 12.5 mg/kg/injection, schedule: Q01DX009 (ip), vehicle: Klucel (hydroxypropylcellulose) (HPC)) 144 % of control [4 of 6 alive]. Further, the survivor count (T/C endpoint: median survival time, dose: 25.0 mg/kg/injection, schedule: Q01DX009 (ip), vehicle: Klucel (hydroxypropylcellulose) (HPC)) is 4 of 6 and 5 of 6. Take `COc1ccccc1NC(=O)NCCN(C)c1ccccc1`: under setting [11], the survivor count is recorded as 3 of 3.

As to `CCCNC1=C(C)C(=O)C2=C(C1=O)[C@@H](COC(N)=O)[C@]1(O)[C@H]3[C@@H](CN21)N3C` (some centres not stated), the T/C (T/C endpoint: mean survival time, dose: 200.0 mg/kg/injection, schedule: Q01DX001 (ip), vehicle: distilled water + Tween-80) was 140 % of control. Turning to `O=C(/C=C/C(=O)OCCCl)OCCCl`, the survivor count under setting [4] is 0 of 6. For `ClC1CN2CCC1CC2` (configuration not stated), the survivor count under setting [1] is reported as 2 of 6.

Turning to `CC1=C(Br)C(=O)C(C(O)(C(F)(F)F)C(F)(F)F)C(C)(C)C1` (configuration not stated), the survivor count under setting [4] is given as 4 of 6.
